Experimental data reported in publication PMC5171795.
For at least one entry, the source does not settle the construct or the ends of the probe. Results from cells or extracts need not show a direct contact. For part of these data: A weaker result is weaker than the reference pair of the same experiment.

The chains behind the UniProt entries cited, without tags or fusion partners.
UniProt P42225, whole entry, stated change not applied: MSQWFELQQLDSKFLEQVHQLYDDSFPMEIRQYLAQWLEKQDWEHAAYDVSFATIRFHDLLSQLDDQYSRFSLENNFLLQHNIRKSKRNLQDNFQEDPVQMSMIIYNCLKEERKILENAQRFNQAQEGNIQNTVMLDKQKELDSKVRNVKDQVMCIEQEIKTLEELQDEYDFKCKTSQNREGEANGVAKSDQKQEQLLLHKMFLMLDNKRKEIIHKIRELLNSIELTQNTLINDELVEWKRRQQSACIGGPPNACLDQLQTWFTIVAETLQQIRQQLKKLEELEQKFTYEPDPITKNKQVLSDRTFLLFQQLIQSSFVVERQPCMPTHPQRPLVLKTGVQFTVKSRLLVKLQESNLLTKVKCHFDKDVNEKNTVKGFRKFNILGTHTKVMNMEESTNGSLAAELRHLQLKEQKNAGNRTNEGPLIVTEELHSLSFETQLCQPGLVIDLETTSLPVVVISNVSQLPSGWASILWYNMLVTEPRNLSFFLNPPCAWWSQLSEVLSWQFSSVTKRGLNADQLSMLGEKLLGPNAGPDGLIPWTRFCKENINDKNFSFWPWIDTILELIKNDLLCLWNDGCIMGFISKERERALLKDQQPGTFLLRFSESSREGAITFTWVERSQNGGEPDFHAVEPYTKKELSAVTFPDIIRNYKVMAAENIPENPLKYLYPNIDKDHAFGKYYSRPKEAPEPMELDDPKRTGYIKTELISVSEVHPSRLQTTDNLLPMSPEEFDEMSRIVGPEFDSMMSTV

Columns and labels:
Experiment in all cases: EMSA supershift
STAT1 (mouse) = STAT1 (mouse) (UniProt P42225); details: 200x unlabelled self probe competes, anti-STAT1 reduces band and supershifts; 2 ug nuclear protein, Thermo Scientific EMSA kit binding buffer (composition and pH not given), 30 min, room temperature; 6% polyacrylamide gel in Tris-borate EDTA; protein in an extract; label: biotin
[1] = biological target: STAT1 (ΔRaptor osteoblast extract) (mouse) (UniProt P42225); details: ΔRaptor extract, binding decreased vs control; 2 ug nuclear protein, Thermo Scientific EMSA kit binding buffer (composition and pH not given), 30 min, room temperature; 6% polyacrylamide gel in Tris-borate EDTA; protein in an extract; label: biotin
[2] = biological target: STAT1 (ΔTsc1 osteoblast extract) (mouse) (UniProt P42225); details: ΔTsc1 extract, binding elevated vs control; 2 ug nuclear protein, Thermo Scientific EMSA kit binding buffer (composition and pH not given), 30 min, room temperature; 6% polyacrylamide gel in Tris-borate EDTA; protein in an extract; label: biotin

“CCTTACTATAAACTCC (double strand) [Cxcl9 promoter γ-RE1 STAT1-binding-site probe]”: binds (STAT1 (mouse)); binds more weakly [1]; binds [2].
